Measured values as given in paper doi:10.1101/456418.
These are yes or no findings as the source states them, for the method shown. Binding seen in cells or lysates may run through a third protein. Some binding calls cover weakened binding; strength is not graded here.

Sequences of proteins named here, by UniProt entry; tags and fusion partners are left off. A change or cut given only in a name is not applied to a line headed by its entry.
UniProt B6SBL8: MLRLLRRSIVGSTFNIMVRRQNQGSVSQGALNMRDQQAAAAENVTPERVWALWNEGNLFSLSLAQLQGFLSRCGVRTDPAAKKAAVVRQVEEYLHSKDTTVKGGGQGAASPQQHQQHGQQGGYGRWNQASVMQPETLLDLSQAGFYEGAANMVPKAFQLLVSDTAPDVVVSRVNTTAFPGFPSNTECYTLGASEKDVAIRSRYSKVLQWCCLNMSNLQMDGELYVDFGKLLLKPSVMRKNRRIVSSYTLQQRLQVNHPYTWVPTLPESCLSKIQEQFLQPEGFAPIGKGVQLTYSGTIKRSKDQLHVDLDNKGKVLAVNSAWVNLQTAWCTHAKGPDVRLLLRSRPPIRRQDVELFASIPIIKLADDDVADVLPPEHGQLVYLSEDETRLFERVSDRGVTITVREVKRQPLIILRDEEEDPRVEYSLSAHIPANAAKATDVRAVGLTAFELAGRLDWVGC
UniProt B6SBM0: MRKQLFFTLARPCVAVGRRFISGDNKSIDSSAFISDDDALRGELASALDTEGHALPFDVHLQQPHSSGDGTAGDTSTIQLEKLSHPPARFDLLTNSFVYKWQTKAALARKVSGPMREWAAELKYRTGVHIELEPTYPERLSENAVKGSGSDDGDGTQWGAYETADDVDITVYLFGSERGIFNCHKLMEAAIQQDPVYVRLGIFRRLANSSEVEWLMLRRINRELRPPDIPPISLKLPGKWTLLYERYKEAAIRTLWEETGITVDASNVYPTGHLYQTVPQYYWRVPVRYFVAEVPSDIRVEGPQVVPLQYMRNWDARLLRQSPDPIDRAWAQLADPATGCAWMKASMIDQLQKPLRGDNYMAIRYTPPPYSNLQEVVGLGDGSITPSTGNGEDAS

Molecular target: GRBC1/2 (RNA editing substrate binding complex, RESC) (Trypanosoma brucei (endogenous in procyclic T. brucei)) (UniProt B6SBL8)
Experiment: co-sedimentation + native gel or EMSA

## MERS1 NUDIX hydrolase (PPsome subunit) (from UniProt B6SBM0 1-395) (enzyme)
  binding: binds
